Reference: PubChem BioAssay AID1296 (Columbia University Molecular Screening Center, 2008)
The whole screen tested about 130,000 compounds, of which about 1,000 (0.77%) were called active. The shares of active, inactive and inconclusive entries below differ from those in the screen.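 How the source made its calls: active means activation at 2 µM above a set limit, confirmed on inspection of the cell images; inconclusive means above the set limit but not confirmed on image inspection; inactive means the rest.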

experiment: activators of insulin promoter-driven GFP, primary screen, imaging, TRM-6 cells (human fetal islet line), eGFP reporter, cell count (AID 1296;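 further: share of cells whose green reporter signal exceeds an intensity cutoff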); conditions: at 2 µM, hits give high values, plate-scaled: unstimulated 0, stimulated control 100
Summary of the method: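 test system = TRM-6 insulin promoter–eGFP reporter cells | benchmarks = stimulated versus unstimulated wells as plate controls | read-out basis = percent cells above green-intensity threshold, converted to percent activation versus plate controls | detection = fixed-cell fluorescence microscopy, eGFP plus Hoechst | incubation = tamoxifen pre-incubation 15 h overnight, then compound exposure 48 h at 37 °C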

SMILES	activation
CCNc1nc(NC(C)C)nc(Oc2ccc(OCc3ccccc3)nn2)n1	inconclusive: 469%
COc1ccc(Br)cc1/C(C)=N/NC1=NCCN1	inconclusive: 78.6%
COc1ccc(C(=O)c2ccc(OC)c(N)c2)cc1N	inconclusive: 76.6%
Cc1c(CCO)c(=O)n(-c2ccccc2)n1S(=O)(=O)c1c(Cl)cc(Cl)cc1Cl	inconclusive: 151%
COC(=O)c1sccc1NC(=O)Cc1ccc(Br)cc1	inactive: -3.45%
CCN(CC)C(=O)Cn1cc(S(=O)(=O)CC(=O)NCCc2ccc(OC)c(OC)c2)c2ccccc21	inconclusive: 82.3%
CCC(CC)c1nnc(NC(=O)c2ccc(N3CCCC3=O)cc2)s1	inactive: -5.88%
O=C1c2ccccc2C(=O)C1c1ccnc2ccccc12	inconclusive: 488%
Cc1ccc2cc(CCNC(=O)c3ccc(Br)o3)c(=O)[nH]c2c1	inconclusive: 127%
Cc1cc(C)cc(NC(=O)c2cccc(NC(=O)C3C4CC5OC(=O)C3C5C4)c2)c1 (configuration not stated)	active: 76.7%
Cc1ccc(NC(=O)CSCC(=O)N2CCOCC2)cc1	inconclusive: 418%
CCCC(=O)NCn1nnc(-c2ccc(Cl)cc2)n1	active: 488% [fluoresces]
CN1C=CC2=C(C#N)C(N)C(C#N)(C#N)C(c3ccccc3)C2C1 (configuration not stated)	inconclusive: 127%
Clc1ccc(C2=Nc3cc(Cl)ccc3OC2)cc1	inconclusive: 355% [cytotoxic]
O=C(Nc1ccc(F)cc1)C1CCN(S(=O)(=O)c2cccs2)CC1	inactive: 5.88%
CCSC(SCC)[C@H](O)[C@@H](O)[C@H](O)[C@H](O)CO	inactive: 4.76%
O=C1CC(c2ccco2)Cc2nc(N3CCc4ccccc4C3)ncc21 (configuration not stated)	inactive: 124%
COCC(=O)Nc1ccc(S(=O)(=O)Nc2cc(C)nc(C)n2)cc1	inactive: 0%
Cc1ccc(CNC(=O)CSc2nc3ccccc3c3nc(C)nn23)cc1	inconclusive: 127%
COc1cc2c3nnc(-c4ccccc4)c-3cn(Cc3ccccc3F)c2cc1OC	active: 525%
CCOC(=O)C(NCc1ccccc1OC)(NC(=O)CC)C(F)(F)F (configuration not stated)	inconclusive: 79%
COc1ccccc1/C=C(\NC(=O)c1ccc(OC)c(OC)c1)C(=O)Nc1cc([N+](=O)[O-])ccc1C	inactive: -2.86%
CCCSC1=C(C#N)C(c2cccs2)C(C(=O)Nc2ccccc2)=C(C)N1 (configuration not stated)	inconclusive: 450%
CN(C)c1ccc(/C=C/c2ccncc2)cc1	active: 86.8%

SMILES	activation
CN1/C(=C/C2CC(=O)N(c3cccc4ccccc34)C2=O)C(C)(C)c2ccccc21 (configuration not stated)	inconclusive: 529%
O=C1CCCCN1CCc1c[nH]c2ccccc12	inconclusive: 660%
CC(=O)C1=C(O)C(=O)N(c2ccc(C)cc2)C1c1ccccn1 (configuration not stated)	inconclusive: 464%
CCC(=O)Nc1ccc(S(=O)(=O)N2CCOCC2)cc1	inconclusive: 471%
COc1ccccc1OCCSc1nnc(C)n1-c1ccccc1	active: 82.9%
CC(=O)Nc1ccc(OCC=C(Cl)Cl)cc1	inconclusive: 86.8%
Cc1cc(NC(=O)CCSc2nc(-c3ccco3)cc(C(F)(F)F)n2)no1	inconclusive: 464%
Cc1occc1C(=O)N/N=C/c1ccccn1	inactive: -6.67%
Cc1ccccc1-n1c(CSC(=N)N)nc2ccccc2c1=O	inconclusive: 149%
CC(C)Cc1nn2c(N)c(/C=C3\C=Nc4ccccc43)c(=O)nc2s1	inconclusive: 305% [cytotoxic]
CCC1CC2(C)NC(=O)c3c(sc4c3CC(C)(C)OC4)N2C1=O (configuration not stated)	inconclusive: 138%
CCOC(=O)c1cc2sc(C)cc2n1CC(=O)N1CCN(C(=O)c2ccco2)CC1	inconclusive: 223% [cytotoxic]
c1ccc(NCc2nc(-c3ccccc3)no2)cc1	inactive: -80%
Cc1ccc(SC(C)C(=O)NCC(C)C)cc1 (configuration not stated)	active: 519%
COc1ccc(S(=O)(=O)N2CCOCC2)cc1Cl	inconclusive: 407%
Cc1cc(SCC(=O)c2cc(C)n(C)c2C)nc2ccccc12	inactive: 0%
COC(=O)c1cc(C(=O)N2CCN(c3ccccc3OC)CC2)cc([N+](=O)[O-])c1	inconclusive: 207% [cytotoxic]
CC(Cc1ccccc1)C(=O)NCc1ccncc1 (configuration not stated)	inactive: -4.76%
O=C(Nc1ccccc1-c1nnn(CC(=O)N2CCN(c3ccccc3)CC2)n1)c1cccs1	inconclusive: 127%
COc1cc(NC(=O)CSc2nnc(Cn3nnc4ccccc43)n2C)cc(OC)c1	inconclusive: 469%
Cc1ccc(/C=C/C(=O)N2CC(C)CC(C)C2)o1 (configuration not stated)	inconclusive: 78.4%
CSc1ccc(S(=O)(=O)Nc2ccc(F)cc2)cc1	active: 420%
CCOc1ccc2nc(SCC(=O)NC(=O)C(C)C)sc2c1	inactive: -100%

3 compounds drawn at random from the list so far:
SMILES	activation
CC(=O)Nc1ccc(OCC=C(Cl)Cl)cc1	inconclusive: 86.8%
CC(C)Cc1nn2c(N)c(/C=C3\C=Nc4ccccc43)c(=O)nc2s1	inconclusive: 305% [cytotoxic]
COc1cc(NC(=O)CSc2nnc(Cn3nnc4ccccc43)n2C)cc(OC)c1	inconclusive: 469%
